In PubChem BioAssay AID1487 (National Center for Advancing Translational Sciences (NCATS), 2009) one finds AC50 data, which are given here for 53 compounds.

“And” between values parts separate entries of the source, which are not always exact repeats. Equal values may be shown once. The list shows a part of the results. Shown are side measurements of this screen, not its main read-out; they come without a call. The list favours compounds with an active or inconclusive main result. Words in brackets tell the shape of the fitted curve; partial curves, single points and poor fits give uncertain potencies.

A short description of the assay: qHTS Assay for Modulators of Lamin A Splicing. The following applies: HeLa LMNA splicing GFP/RFP minigene ratio, 48 h. The method, boiled down: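 Read-out is the ratio of GFP to DsRed2 object intensity, acquired by 488 nm laser-scanning cytometry on HeLa lamin A-EGFP minigene reporter cells. Compound incubation 48 hrs at 37 °C in Opti-MEM with 2% FBS; DMSO 0.5% final.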

The mark [1] stands for this setting: measured here: RFP viability control channel.
The mark [2] stands for this setting: measured here: GFP splicing reporter channel.

As for `O=c1[nH]c(=O)n(-c2ccccc2)c(O)c1/C=C1/C(c2ccccc2)=Nc2ccccc21`, the concentration at half-maximal activity (AC50) (commonly the midpoint of the concentration-response curve, whichever way the signal moves) under setting [1] was 8.91 µM [rising, partial curve, poor fit]. With `O=C(Cn1ccc2ccccc2c1=O)NCC(=O)N1CCC2(CC1)OCCO2`, the AC50 under setting [2] was 2.51 µM [rising, partial curve].

With `COc1cc(CN2CCN(c3cc(C)ccc3C)CC2)ccc1O`, the concentration at half-maximal activity (AC50) under setting [1] was 22.4 µM [rising, single point]. Still for that read-out and setting: the same measure for `Cc1ccccc1`: 6.31 µM [falling, single point]. Regarding `COc1ccc(-n2c(O)c(/C=C/C=Nc3ccccc3)c(=O)[nH]c2=O)cc1`, the AC50 under setting [2] was 10 µM [falling, partial curve] and the half-maximal activity concentration (AC50) under setting [1] was 10 µM [falling, partial curve].

Regarding `COC(=O)c1c(-c2ccc(Cl)cc2)noc1N1CCN(c2ccc(C(C)=O)cc2)CC1`, under setting [1], the AC50 is 5.01 µM [rising, partial curve, poor fit]. In the case of `O=C(CNC(=O)c1ccccc1Cl)Nc1ccc(Br)cc1C(=O)c1ccccc1`, the AC50 under setting [1] is 17.8 µM [rising, partial curve, poor fit].

For `CN1C2CCC1CC(OC(c1ccccc1)c1ccc(Cl)cc1)C2` (stereo not given), the concentration at half-maximal activity (AC50) was 7.08 µM [falling, full curve, poor fit] under setting [2] and 5.62 µM [falling, partial curve] under setting [1].

Consider `N=C1c2ccccc2CN1c1ncccn1`, for which the AC50 under setting [1] is 11.2 µM [rising, partial curve]. Take `CCCn1c(=O)c2[nH]c(C3CCCC3)nc2n(CCCOC(=O)c2ccc(S(=O)(=O)F)cc2)c1=O`: the AC50 was 12.6 µM [falling, partial curve] under setting [2] and 0.0178 µM [falling, full curve, poor fit] under setting [1].

On to `COc1cc2c(C(=O)O)c(C)n(C)c2cc1Br`, for which, under setting [2], the concentration at half-maximal activity (AC50) was 14.1 µM [rising, partial curve, poor fit]. As for `C=CCN1CC[C@]23c4c5ccc(O)c4O[C@@H]2/C(=N/N=C2\CC[C@@]4(O)C6Cc7ccc(O)c8c7[C@@]4(CCN6CC=C)[C@@H]2O8)CC[C@@]3(O)C1C5`, the concentration at half-maximal activity (AC50) reads like this: under setting [2], 12.6 µM [falling, partial curve, poor fit]; under setting [1], 7.08 µM [falling, full curve, poor fit].

On to `C[C@@]12CC[C@H]3[C@@H](CCC4=CC(=O)CC[C@]43C)[C@H]1CC[C@H]2C(=O)CO`, for which, under setting [1], the AC50 is 3.98 µM [falling, partial curve]. Still for that read-out and setting: the same measure for `CC(Cc1ccccc1)NC(=O)CN1CCCC1=O` (stereo not given): 5.62 µM [falling, single point].

As for `CCc1nn(CC(=O)N2CCN(Cc3ccc4c(c3)OCO4)CC2)c(=O)c2cc3occc3n12`, the AC50 under setting [1] was 20 µM [rising, single point]. The same measure, in the same setting: the same measure for `Cc1nc2ccccn2c1P(=S)(N1CCCCC1)N1CCCCC1`: 35.5 µM [rising, single point].

Regarding `c1cnc2c(c1)ccc1ncccc12`, the AC50 is, setting by setting: under setting [2], 0.0794 µM [falling, full curve, poor fit]; under setting [1], 0.0562 µM [falling, full curve, poor fit]. Regarding `COC(=O)C(C)Oc1cc(C)cc2oc(=O)c3c(c12)CCC3` (stereo not given), the half-maximal activity concentration (AC50) under setting [2] is 0.501 µM [rising, full curve, poor fit].

On to `CC[C@@H]1[C@@H]2C[C@H]3[C@H]4N(C)c5ccccc5[C@@]45C[C@@H]([C@@H]2[C@@H]5O)N3[C@H]1O`, for which the AC50 under setting [2] is 3.16 µM [falling, single point].

With `COc1cccc(C2=CC(c3cc(Br)ccc3F)n3nnnc3N2)c1` (stereo not given), the concentration at half-maximal activity (AC50) under setting [1] was 35.5 µM [falling, single point]. With `CNC(=O)Oc1cccc2ccccc12`, under setting [2], the AC50 is 0.0112 µM [falling, full curve, poor fit].

As to `Cc1ccccc1-n1c(O)c(C=Nc2ccc(N(C)C)cc2)c(=O)[nH]c1=O`, the AC50 under setting [1] was 12.6 µM [falling, partial curve, poor fit]. On to `CC(=O)c1cccc(OCC(O)CN2CC=C(c3ccccc3)CC2)c1` (stereo not given), for which the AC50 is, setting by setting: under setting [2], 11.2 µM [rising, single point]; under setting [1], 6.31 µM [rising, partial curve, poor fit]. With `Cc1ncsc1CCCl`, the half-maximal activity concentration (AC50) under setting [2] is 20 µM [falling, single point] and the AC50 under setting [1] was 0.0224 µM [falling, full curve, poor fit]. As for `C=CC1CN2CCC1CC2[C@@H](OC(=O)c1ccc(OC)cc1)c1ccnc2ccccc12` (stereo not given in full), the AC50 under setting [2] was 0.316 µM [rising, partial curve, poor fit] and the AC50 under setting [1] is 1.12 µM [rising, partial curve]. Regarding `O=C(c1cccn2c(=O)c3cc(Cl)ccc3nc12)N1CCC2(CC1)OCCO2`, the AC50 under setting [2] is 0.0562 µM [rising, full curve, poor fit]. On to `C[C@@H](C(=O)O)c1ccc(-c2ccccc2)c(F)c1`, for which the AC50 runs as follows: under setting [2], 3.16 µM [falling, single point]; under setting [1], 3.16 µM [falling, single point]. Consider `C[C@H]1CCC[C@@H](O)CCC/C=C/c2cc(O)cc(O)c2C(=O)O1`, for which the AC50 is, setting by setting: under setting [2], 3.98 µM [falling, partial curve, poor fit]; under setting [1], 3.98 µM [rising, full curve]. For the compound `CN1CCN(Cc2ccc(N)cc2)CC1`, the AC50 was 11.2 µM [falling, partial curve] under setting [2] and 14.1 µM [falling, partial curve] under setting [1]. On to `CCOc1ccc(/C=C/C(=O)C(C(N)=O)=C2SCCS2)cc1`, for which the AC50 under setting [1] is 7.08 µM [rising, partial curve]. The same measure, in the same setting: the same measure for `Nc1cncc(C(=O)O)c1`: 1.58 µM [falling, full curve, poor fit]; for `CCOC(C(=O)OCC(O)CN(CC)CC)(c1ccccc1)c1ccccc1` (stereo not given): 0.0355 µM [falling, full curve, poor fit]. For the compound `Cc1ccc(S(=O)(=O)N2CCC(=O)N(CCOC(=O)Nc3cccc(Cl)c3)CC2)cc1`, the AC50 is, setting by setting: under setting [2], 15.8 µM [rising, single point]; under setting [1], 25.1 µM [rising, single point].

For `CCCCCCC(C)(C)c1ccc([C@@H]2C[C@H](O)CC[C@H]2CCCO)c(O)c1`, the AC50 under setting [2] is 28.2 µM [falling, partial curve, poor fit] and the half-maximal activity concentration (AC50) under setting [1] is 20 µM [falling, partial curve]. Take `C#CCN1C(=O)C2(C(C#N)=C(N)OC(C)=C2C(=O)OCc2ccccc2)c2ccccc21` (stereo not given): the AC50 under setting [1] was 3.98 µM [rising, full curve]. On the same count and under the same terms, the same measure for `c1ccc(-c2[nH]c(-c3ccccc3)[n+](CC3CO3)c2-c2ccccc2)cc1` (stereo not given): 10 µM [rising, partial curve]. Regarding `COc1cc2c(cc1O)[C@H]1Cc3ccc(OC)c(O)c3CN1CC2`, the concentration at half-maximal activity (AC50) under setting [2] was 10 µM [falling, single point] and the AC50 under setting [1] was 10 µM [falling, single point].

Consider `CCc1cc(=O)[nH]c(SCCCF)n1`, for which the AC50 under setting [1] is 0.00282 µM [falling, full curve, poor fit]. With `FC(F)(F)c1ccc2c(c1)nnn2C1CCN(Cc2nnnn2Cc2ccccc2)CC1`, the half-maximal activity concentration (AC50) under setting [1] was 28.2 µM [rising, single point].

With `CC(=O)[C@H]1CCC2C3CC[C@H]4C[C@H](O)CC[C@]4(C)C3CC[C@@]21C` (stereo not given in full), the AC50 under setting [2] was 0.316 µM [rising, full curve, poor fit] and the half-maximal activity concentration (AC50) under setting [1] is 22.4 µM [falling, partial curve].

Take `CCCCCCCCCCCCCCCCCC[N+](C)(C)CCC[Si](OC)(OC)OC`: the half-maximal activity concentration (AC50) runs as follows: under setting [2], 1.12 µM [falling, partial curve, poor fit]; under setting [1], 35.5 µM [falling, single point].

With `Clc1ccc(COC(Cn2ccnc2)c2ccc(Cl)cc2Cl)cc1` (stereo not given), the AC50 reads like this: under setting [2], 11.2 µM [rising, partial curve, poor fit] and 17.8 µM [falling, partial curve]; under setting [1], 12.6 µM [rising, partial curve] and 15.8 µM [falling, partial curve]. On to `COc1ccc2c(c1OC)C(=O)OC2C1c2cc3c(cc2CCN1C)OCO3` (stereo not given), for which, under setting [1], the concentration at half-maximal activity (AC50) was 0.000891 µM [falling, full curve, poor fit]. Consider `CN(C)C=C1C(=O)N(C2CCCCC2)C(=O)N(C2CCCCC2)C1=O`, for which the AC50 runs as follows: under setting [2], 25.1 µM [falling, single point]; under setting [1], 31.6 µM [falling, single point]. As to `CC1OC(OC2C(O)CC(OC3C(O)CC(OC4CCC5(C)C(CCC6C5CCC5(C)C(C7=CC(=O)OC7)CCC65O)C4)OC3C)OC2C)CC(O)C1O` (stereo not given), the concentration at half-maximal activity (AC50) under setting [2] was 1 µM [falling, full curve, poor fit] and the half-maximal activity concentration (AC50) under setting [1] was 0.708 µM [rising, full curve].

Consider `c1ccc2c(CN3CCCCCCC3)c[nH]c2c1`, for which the AC50 was 35.5 µM [falling, single point] under setting [2] and 3.16 µM [falling, partial curve] under setting [1]. Consider `CCCN1CCC[C@@H]2Cc3n[nH]cc3C[C@H]21`, for which the half-maximal activity concentration (AC50) under setting [2] is 6.31 µM [falling, partial curve, poor fit]. With `CCOP(=O)(OCC)c1nc(-c2ccc(C)cc2)oc1NCc1ccccc1`, the concentration at half-maximal activity (AC50) is 15.8 µM [rising, single point] under setting [2] and 31.6 µM [rising, single point] under setting [1]. Consider `Cc1ccc(CC(=O)N2CCN(Cc3ccccc3)CC2)cc1`, for which, under setting [1], the AC50 was 0.0708 µM [rising, full curve, poor fit].

Take `O=C(O)c1cc(O)c(O)c(O)c1`: the half-maximal activity concentration (AC50) under setting [1] was 0.282 µM [rising, full curve, poor fit]. `CCC(C#N)(CC)P(=S)(c1ccccc1)c1ccccc1`: the AC50 under setting [1] is 5.01 µM [rising, partial curve]. The same measure, in the same setting: the same measure for `O=C(c1cc(-c2ccc(Cl)cc2)n(-c2ccc(Cl)cc2Cl)n1)N1CCOCC1`: 11.2 µM [falling, single point].

As for `Cc1ccc(-c2cn3c(=S)[nH]nc3s2)cc1`, the AC50 under setting [2] is 4.47 µM [rising, single point] and the AC50 under setting [1] is 31.6 µM [falling, single point].
